# Assay results

Data taken from PubChem BioAssay AID1159506, deposited by NCATS (2015).

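Genome-wide siRNA knockdown in TC32 Ewing sarcoma cells, comparing luciferase light from an NR0B1-promoter reporter with a CMV-promoter reporter 48 hours after transfection. Each siRNA was applied at 20 nM. A z-score of the log NR0B1-over-CMV signal, less the median of siRNAs with the same seed; more negative means a stronger specific loss of the NR0B1 reporter.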

This is part of the screen; most of the strongest results are not listed here. Sequences are the guide (antisense) strand, without overhang.

| # | Sequence | gene | seed-corrected z-score |
|---|---|---|---|
| 1 | `UUGGAGUGAAUAUAUCUGU` | OSR1 | -0.3268 |
| 2 | `UCAGUUAAGCUGAAGCUGA` | TUBA1B | -0.003476 |
| 3 | `UAUCCGUUAUUUGUAAAGG` | NHLRC2 | 0.01802 |
| 4 | `UGCCUUGUUAUAUGGAGCU` | PLA2G1B | -0.2123 |
| 5 | `AUUCGGAAAAAGAUGCUGC` | GJB6 | 0.6842 |
| 6 | `UAAUCUGUAAUCAUCUUUG` | OR4K2 | -0.6746 |
| 7 | `UUCCGGUUAGGAUCCACAC` | CPA2 | 0.3893 |
| 8 | `UGCGUUUUCAUAGGAGGGC` | ZNF77 | -0.4056 |
| 9 | `UUGCUCACAACUGCCUUGC` | SPATA12 | -0.5959 |
| 10 | `UAUCUUCGCUGACUUUUCC` | MMRN1 | -0.00118 |
| 11 | `UUCAAUUACAGGUACUUGC` | KLF3 | 1.115 |
| 12 | `UCAAAGUCCUCGUCUAGGG` | PROSER2 | -0.837 |
| 13 | `AAUAGUCACAGGUCUCUGC` | FRRS1L | -0.5135 |
| 14 | `UUUGGUAUUAAAUGUGGUC` | PNMA6A | -0.02193 |
| 15 | `UCUGCUACAACCACUGAGC` | GABRA1 | 0.148 |
| 16 | `UUCUAUGCAUGCAAUAAUG` | CAPZA2 | 0.8319 |
| 17 | `UAUAUGACAAUGGUUCUCC` | TFRC | -0.7667 |
| 18 | `AUUCUUCUCACCAUAAGCC` | SIAE | 1.434 |
| 19 | `AAAGUACGGAGCGAAGUUG` | CH25H | -0.3047 |
| 20 | `UUCACUUCCUUUAUAACUC` | NPC2 | 0.7431 |
| 21 | `UCUGUUCCAAUCGCAGCGG` | THRB-AS1 | 0.9165 |
| 22 | `UGGGAUUCAAGCACUCAGG` | SOCS2-AS1 | -0.4306 |
| 23 | `UUACAGAUGCCGUUGAUGC` | ADAMTS7 | -0.2035 |
| 24 | `UCCACUUAGAUAGGCACCC` | HSPB7 | 0.1762 |
| 25 | `AGAAUAAUCACUACGGCUG` | HTR2A | -0.4498 |
| 26 | `UAGUAUAUACUGAACGGUC` | ATP6V1H | 1.223 |
| 27 | `AUGCAUCUCGUAAUUGUCC` | MED22 | 0.1384 |
| 28 | `UUCCGCAUAAUCUUCCGGC` | PNPLA6 | -0.1099 |
| 29 | `GGAGUUGUAUGUCCAUAAC` | ALG1L | 1.489 |
| 30 | `UGUUCCAACAGAGCUACCC` | CEP55 | -1.342 |
| 31 | `UUGCCGAUGAGGAAGUUCG` | PRLHR | 0.3519 |
| 32 | `AGUGUCAUCGAACUUGUCC` | DCAF12L1 | 0.2675 |
| 33 | `AAAAGUGUUGGAGAUAUAG` | SMARCD3 | 0.521 |
| 34 | `UUGCUUUCGGUCGAUUGUC` | PPP4C | -0.2998 |
| 35 | `UCCCUUAUGAAAAGAGUGC` | PKHD1 | 0.0334 |
| 36 | `UUUAGGAUGACCUUAGAGG` | LCNL1 | 0.4136 |
| 37 | `UUCUAUAUACUGUUCUUCU` | ARL2BPP3 | 0.415 |
| 38 | `UGAUAUUGUAGAUUAAGGG` | PHTF1 | 2.364 |
| 39 | `AUAGCAACCAAUACUAUCC` | ADAM22 | 0.9762 |
| 40 | `UUCAAUCCUCUGAAAAUCC` | ZRANB1 | 1.195 |
| 41 | `UUUCAAUCCAGUCCAACAC` | KALRN | -0.7959 |
| 42 | `UCAUUAAUUUCAGUUACUU` | GCSH | 0.03394 |
| 43 | `UAGGUAUCUCUUCACUUUG` | ZNF346 | 0.324 |
| 44 | `UCAAACUCUUGGUGGUUGC` | KCNS1 | -0.2321 |
| 45 | `AUUGUAGUGAAUGUCAUCC` | OR51B4 | -0.8308 |
| 46 | `UACCAGUCCACGCUCAAUG` | ACTRT1 | 0.6976 |
| 47 | `AAACUGGUAGUUGUCCUCA` | FCN2 | -0.04102 |
| 48 | `ACUGGUUCCACAGUACUCC` | C10orf88 | -0.3936 |
| 49 | `UAGUGUUCCGAAAUCAGCU` | GFOD2 | 0.03879 |
| 50 | `UAAGAUGUCAAUAUCAUGC` | ANKDD1B | -0.2792 |
| 51 | `UCAUAUUGAACUAUCAAGG` | CLGN | 0.5572 |
| 52 | `UUCGAACCCAUACCUGACA` | ABCG1 | -0.03804 |
| 53 | `UUACCAUAAAAUCAUAUGC` | FBXW7 | -0.2 |
| 54 | `UCCACAGCAAGUACAUAGC` | ALG1 | 0.1679 |
| 55 | `AAGGAUAAAUGGACAUUGU` | RNF187 | -0.593 |
| 56 | `UAUACAGCAACUAAUAUUG` | PLPP1 | 0.4818 |
| 57 | `AAUGUGGGCGUAAUGAUGC` | OR2AE1 | -0.4937 |
| 58 | `UUGUGCAAGACGUUCUUCC` | EEF1B2 | -0.0302 |
| 59 | `UCGUCUGCGACUUCUUUGU` | PRM1 | -0.5982 |
| 60 | `ACAGGGACUUGUCUGAUGG` | MAP1S | -1.364 |
| 61 | `UAGAAGAUAGUAAAGUACC` | MC4R | 0.02429 |
| 62 | `ACCGGAACAAGGCUUGUCG` | HOST2 | -0.3059 |
| 63 | `UCGGUUGUCAGGGUACUUC` | DOCK10 | -0.1357 |
| 64 | `AUAGGCUUGGUAGAGUUCG` | EMILIN2 | 0.006199 |
| 65 | `UUCUAUUCCAUAUAGUGUC` | NMRK1 | -0.3759 |
| 66 | `UAAGAUAUCUCGAAGCUCC` | POU4F1 | 0.6757 |
| 67 | `UCUGUACUGAGUAAUAGCC` | TLN1 | -0.4353 |
| 68 | `UCUCCUUCCAAGAGGCUCC` | TREM2 | 0.1381 |
| 69 | `UUUGAGAGGAUCACCGACC` | TMEM35 | -0.6121 |

The first 9 entries again:

| Sequence | gene | seed-corrected z-score |
|---|---|---|
| `UUGGAGUGAAUAUAUCUGU` | OSR1 | -0.3268 |
| `UCAGUUAAGCUGAAGCUGA` | TUBA1B | -0.003476 |
| `UAUCCGUUAUUUGUAAAGG` | NHLRC2 | 0.01802 |
| `UGCCUUGUUAUAUGGAGCU` | PLA2G1B | -0.2123 |
| `AUUCGGAAAAAGAUGCUGC` | GJB6 | 0.6842 |
| `UAAUCUGUAAUCAUCUUUG` | OR4K2 | -0.6746 |
| `UUCCGGUUAGGAUCCACAC` | CPA2 | 0.3893 |
| `UGCGUUUUCAUAGGAGGGC` | ZNF77 | -0.4056 |
| `UUGCUCACAACUGCCUUGC` | SPATA12 | -0.5959 |